Source: publication PMC10496494

Molecular target: T1, DDX24^WT, bait of the Co-IP followed by mass spectrometry (human) (UniProt Q9GZR7)
T1 sequence: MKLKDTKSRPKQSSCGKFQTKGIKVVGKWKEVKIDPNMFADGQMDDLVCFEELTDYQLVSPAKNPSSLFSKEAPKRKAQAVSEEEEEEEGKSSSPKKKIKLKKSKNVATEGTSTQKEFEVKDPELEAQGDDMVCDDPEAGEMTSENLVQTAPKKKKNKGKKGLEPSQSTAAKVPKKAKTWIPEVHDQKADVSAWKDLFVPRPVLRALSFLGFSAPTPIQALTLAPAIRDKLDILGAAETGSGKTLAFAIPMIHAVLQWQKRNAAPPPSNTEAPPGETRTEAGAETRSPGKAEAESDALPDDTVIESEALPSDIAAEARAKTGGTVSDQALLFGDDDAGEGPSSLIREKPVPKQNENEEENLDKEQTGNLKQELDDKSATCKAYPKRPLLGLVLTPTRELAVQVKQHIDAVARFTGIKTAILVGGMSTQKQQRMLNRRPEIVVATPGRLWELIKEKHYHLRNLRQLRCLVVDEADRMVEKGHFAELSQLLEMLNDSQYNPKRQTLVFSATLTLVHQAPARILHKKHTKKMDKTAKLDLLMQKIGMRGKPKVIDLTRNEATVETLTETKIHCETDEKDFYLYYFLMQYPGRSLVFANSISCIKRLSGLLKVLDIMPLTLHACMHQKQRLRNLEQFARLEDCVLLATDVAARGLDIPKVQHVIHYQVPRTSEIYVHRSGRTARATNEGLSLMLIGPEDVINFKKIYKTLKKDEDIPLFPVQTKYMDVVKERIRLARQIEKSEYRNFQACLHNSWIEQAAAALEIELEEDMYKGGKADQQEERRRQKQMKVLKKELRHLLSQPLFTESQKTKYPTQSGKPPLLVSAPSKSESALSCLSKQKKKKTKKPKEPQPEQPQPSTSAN
Assay: affinity purification with mass spectrometry; Co-IP with anti-DDX24 antibody (Pierce Co-Immunoprecipitation Kit), SDS-PAGE, silver stain, mass spectrometry; DDX24^WT and DDX24^E271K samples; cells not given

binding: binds
B1: FBL (protein, UniProt P22087 1-321)
chain: MKPGFSPRGGGFGGRGGFGDRGGRGGRGGFGGGRGRGGGFRGRGRGGGGGGGGGGGGGRGGGGFHSGGNRGRGRGGKRGNQSGKNVMVEPHRHEGVFICRGKEDALVTKNLVPGESVYGEKRVSISEGDDKIEYRAWNPFRSKLAAAILGGVDQIHIKPGAKVLYLGAASGTTVSHVSDIVGPDGLVYAVEFSHRSGRDLINLAKKRTNIIPVIEDARHPHKYRMLIAMVDVIFADVAQPDQTRIVALNAHTFLRNGGHFVISIKANCIDSTASAEAVFASEVKKMQQENMKPQEQLTLEPYERDHAVVVGVYRPPPKVKN

These are yes or no findings as the source states them, for the method shown. In cells and extracts the contact can be indirect. These calls come from enrichment with a bait or labelling near it, and not all partners need be listed.
